Reference: patent US10563263B2, “Genetic polymorphisms associated with statin response and cardiovascular diseases, methods of detection and uses thereof” (CELERA CORPORATION, priority 2010, dated 2020)
This continues a long series; more values of the same kind are listed elsewhere.

Tested on: CHD (death from CHD, nonfatal MI, or revascularization)
Test: WOSCOPS: SNP by pravastatin treatment interaction, logistic regression (synergy index), CHD endpoint
Type: in vivo, human
Source text: CARE was a secondary prevention trial and WOSCOPS was a primary prevention trial.
The CHD endpoint was defined in the analyses herein of CARE as a composite endpoint of fatal CHD, definite non-fatal MI, or revascularization, and was defined in the analyses herein of WOSCOPS as a composite endpoint of death from CHD, nonfatal MI, or revascularization. In both the CARE and WOSCOPS analyses herein, the CVD endpoint was defined as a composite endpoint of CHD or stroke. […] Revascularization, which can include percutaneous transluminal coronary angioplasty (PTCA), stent placement, and coronary artery bypass graft (CABG), are medical interventions that indicate the presence of CHD.
Cohort and case-only study designs were used to identify SNPs associated with response to statin treatment.
For each SNP, a logistic regression model having treatment status as the dependent variable and SNP as the independent predictor variable was performed, with terms for age, sex and race included in the model as covariates. The anti-log of the regression coefficient corresponding to the SNP is an estimate of the synergy index (SI) (Davis et al., “Imputing gene-treatment interactions when the genotype distribution is unknown using case-only and putative placebo analyses-a new method for the Genetics of Hypertension Associated Treatment (GenHAT) study”, Statistics in Medicine 23: (2004), pages 2413-2427). The SI is a ratio of odds ratios: for example in the CARE and WOSCOPS studies, the SI represents the factor by which the odds-ratio of statin treatment, compared with placebo, among major homozygous individuals is multiplied by in order to obtain the odds-ratio of treatment vs. placebo among heterozygous individuals; and multiplied by a second time to obtain the odds-ratio of treatment vs. placebo in minor homozygous individuals. The case-only study design results in a valid estimate of the SI under the assumption that genotype and treatment are independent in the population. In a randomized clinical trial, genotype and treatment are independent by design. The p-value for the regression coefficient corresponding to the SNP results from a test of the null hypothesis that the regression coefficient is equal to zero (SI is equal to one) and thus small p-values indicate the SI is unlikely equal to one and that the effect of treatment likely differs by genotype. […]

Structure (SMILES): CC[C@H](C)C(=O)O[C@H]1C[C@H](O)C=C2C=C[C@H](C)[C@H](CC[C@@H](O)C[C@@H](O)CC(=O)O)[C@H]21 [Pravastatin, pravastatin]
- OR (WOSCOPS, rs3806024 allele T, model ADD, Imputed): 2.274
- OR (WOSCOPS, rs3806024 allele T, model DOM, Imputed): 2.756
- OR (WOSCOPS, rs3847825 allele G, model ADD, Imputed): 0.7535
- OR (WOSCOPS, rs3852001 allele C, model REC, Genotyped): 2.797
- OR (WOSCOPS, rs3852002 allele G, model REC, Imputed): 2.797
- OR (WOSCOPS, rs3852003 allele A, model REC, Imputed): 2.797
- OR (WOSCOPS, rs3942254 allele T, model DOM, Imputed): 0.5955
- OR (WOSCOPS, rs3945085 allele A, model DOM, Imputed): 1.391
- OR (WOSCOPS, rs4029119 allele G, model ADD, Imputed): 0.1157
- OR (WOSCOPS, rs4029119 allele G, model DOM, Imputed): 0.1157
- OR (WOSCOPS, rs4146972 allele T, model DOM, Genotyped): 1.672
- OR (WOSCOPS, rs4259369 allele C, model REC, Imputed): 0.4161
- OR (WOSCOPS, rs4273613 allele T, model ADD, Imputed): 0.235
- OR (WOSCOPS, rs4273613 allele T, model DOM, Imputed): 0.235
- OR (WOSCOPS, rs4294022 allele C, model DOM, Imputed): 0.5507
- OR (WOSCOPS, rs4310554 allele C, model DOM, Genotyped): 1.609
- OR (WOSCOPS, rs4315598 allele T, model ADD, Imputed): 1.42
- OR (WOSCOPS, rs4370878 allele G, model DOM, Imputed): 1.391
- OR (WOSCOPS, rs4436200 allele C, model ADD, Imputed): 0.5856
- OR (WOSCOPS, rs4444612 allele G, model ADD, Imputed): 1.429
- OR (WOSCOPS, rs4450660 allele C, model DOM, Imputed): 1.719
- OR (WOSCOPS, rs4463950 allele C, model DOM, Imputed): 0.5555
- OR (WOSCOPS, rs4509702 allele C, model DOM, Imputed): 1.391
- OR (WOSCOPS, rs4533379 allele G, model ADD, Imputed): 1.429
- OR (WOSCOPS, rs4569984 allele A, model DOM, Imputed): 0.5254
- OR (WOSCOPS, rs4570530 allele C, model DOM, Imputed): 1.391
- OR (WOSCOPS, rs4571583 allele T, model DOM, Imputed): 0.5381
- OR (WOSCOPS, rs4586678 allele A, model DOM, Imputed): 1.719
- OR (WOSCOPS, rs4615971 allele C, model DOM, Imputed): 1.351
- OR (WOSCOPS, rs4629229 allele G, model DOM, Imputed): 0.6821
- OR (WOSCOPS, rs4641552 allele A, model ADD, Imputed): 0.5381
- OR (WOSCOPS, rs4682527 allele C, model DOM, Imputed): 1.785
- OR (WOSCOPS, rs4688632 allele G, model REC, Imputed): 0.656
- OR (WOSCOPS, rs4702720 allele A, model ADD, Imputed): 0.6922
- OR (WOSCOPS, rs4702720 allele A, model DOM, Imputed): 0.7001
- OR (WOSCOPS, rs4714484 allele A, model ADD, Imputed): 0.5988
- OR (WOSCOPS, rs4714484 allele A, model DOM, Imputed): 0.5097
- OR (WOSCOPS, rs4725142 allele G, model REC, Genotyped): 0.3868
- OR (WOSCOPS, rs4725144 allele G, model REC, Imputed): 0.3868
- OR (WOSCOPS, rs4760785 allele A, model ADD, Imputed): 0.7632
- OR (WOSCOPS, rs4760785 allele A, model DOM, Imputed): 0.5772
- OR (WOSCOPS, rs4760894 allele T, model ADD, Imputed): 0.7632
- OR (WOSCOPS, rs4760894 allele T, model DOM, Imputed): 0.5772
- OR (WOSCOPS, rs4760895 allele A, model ADD, Imputed): 0.7632
- OR (WOSCOPS, rs4760895 allele A, model DOM, Imputed): 0.5772
- OR (WOSCOPS, rs4767184 allele C, model ADD, Imputed): 0.7432
- OR (WOSCOPS, rs4773487 allele T, model ADD, Imputed): 0.5534
- OR (WOSCOPS, rs4780547 allele G, model REC, Imputed): 0.5086
- OR (WOSCOPS, rs4836502 allele T, model DOM, Imputed): 0.6021
- OR (WOSCOPS, rs4836507 allele C, model DOM, Imputed): 0.6042
- OR (WOSCOPS, rs4851531 allele T, model DOM, Imputed): 0.5595
- OR (WOSCOPS, rs4879931 allele G, model ADD, Imputed): 0.7554
- OR (WOSCOPS, rs4976276 allele T, model ADD, Imputed): 1.499
- OR (WOSCOPS, rs4977681 allele C, model REC, Imputed): 2.078
- OR (WOSCOPS, rs4986197 allele G, model ADD, Imputed): 1.42
- OR (WOSCOPS, rs4986220 allele T, model ADD, Imputed): 1.437
- OR (WOSCOPS, rs5756669 allele C, model DOM, Imputed): 1.639
- OR (WOSCOPS, rs6033138 allele C, model ADD, Imputed): 1.429
- OR (WOSCOPS, rs6040619 allele C, model ADD, Imputed): 1.432
- OR (WOSCOPS, rs6040625 allele T, model ADD, Imputed): 1.45
- OR (WOSCOPS, rs6040630 allele A, model ADD, Imputed): 1.444
- OR (WOSCOPS, rs6040633 allele A, model ADD, Imputed): 1.429
- OR (WOSCOPS, rs6040634 allele T, model ADD, Imputed): 1.429
- OR (WOSCOPS, rs6075209, dom, CaseOnly, CHD, pravastatin vs placebo): 0.68
- OR (WOSCOPS, rs7094941, add, CaseOnly, CHD, pravastatin vs placebo): 0.66
- OR (WOSCOPS, rs7616936, dom, CaseOnly, CHD, pravastatin vs placebo): 2.30
- OR (WOSCOPS, rs7910196, add, CaseOnly, CHD, pravastatin vs placebo): 1.72
- OR (WOSCOPS, rs8109631, dom, CaseOnly, CHD, pravastatin vs placebo): 1.54
- OR (WOSCOPS, rs9436636, add, CaseOnly, CHD, pravastatin vs placebo): 1.36
- OR (WOSCOPS, rs10103297, dom, CaseOnly, CHD, pravastatin vs placebo): 2.74
- OR (WOSCOPS, rs10875941, dom, CaseOnly, CHD, pravastatin vs placebo): 0.51
- OR (WOSCOPS, rs11082492, add, CaseOnly, CHD, pravastatin vs placebo): 1.76
- OR (WOSCOPS, rs12657484, dom, CaseOnly, CHD, pravastatin vs placebo): 1.76
- OR (WOSCOPS, rs13314266, add, CaseOnly, CHD, pravastatin vs placebo): 0.40
- OR (WOSCOPS, rs16861467, add, CaseOnly, CHD, pravastatin vs placebo): 0.37
- OR (WOSCOPS, rs17716275, dom, CaseOnly, CHD, pravastatin vs placebo): 2.26
- WOSCOPS OR (rs2574, Source caseonly): 1.54
- WOSCOPS OR (rs4773, Source caseonly): 0.77
- WOSCOPS OR (rs7508, Source caseonly): 1.39
- WOSCOPS OR (rs9857, Source caseonly): 0.83
- WOSCOPS OR (rs9960, Source caseonly): 1.41
- OR (rs198460, allele G, REC, Genotyped): 2.115
- WOSCOPS OR (rs198460, Source cohort): 1.54
- WOSCOPS OR (rs198464, Source caseonly): 2.04
- WOSCOPS OR (rs238250, Source cohort): 1.43
- WOSCOPS OR (rs251817, Source caseonly): 2.98
- WOSCOPS OR (rs271046, Source caseonly): 0.58
- WOSCOPS OR (rs475420, Source caseonly): 1.37
- WOSCOPS OR (rs494111, Source caseonly): 0.59
- WOSCOPS OR (rs498657, Source caseonly): 1.18
- OR (rs603940, allele G, REC, Genotyped): 0.5858
- OR (rs613799, allele (A1) C, model DOM, Imputed, WOSCOPS): 1.45
- WOSCOPS OR (rs619825, Source caseonly): 0.61
- OR (rs644041, allele (A1) G, model ADD, Imputed, WOSCOPS): 1.555
- OR (rs644041, allele (A1) G, model DOM, Imputed, WOSCOPS): 1.611
- WOSCOPS OR (rs646749, Source caseonly): 0.62
- OR (rs647645, allele (A1) C, model ADD, Imputed, WOSCOPS): 0.7227
- OR (rs647645, allele (A1) C, model REC, Imputed, WOSCOPS): 0.4895
- OR (rs658108, allele (A1) A, model DOM, Imputed, WOSCOPS): 1.477
- OR (rs668732, allele (A1) A, model DOM, Imputed, WOSCOPS): 1.56
- OR (rs671041, allele (A1) A, model DOM, Imputed, WOSCOPS): 1.507
- OR (rs687047, allele (A1) C, model ADD, Imputed, WOSCOPS): 0.7129
- OR (rs688358, allele (A1) A, model ADD, Imputed, WOSCOPS): 0.6788
- WOSCOPS OR (rs892162, Source caseonly): 0.47
- WOSCOPS OR (rs974950, Source caseonly): 0.56
- WOSCOPS OR (rs996022, Source caseonly): 0.62
- OR (rs1003148, allele C, ADD, Imputed): 0.7355
- OR (rs1003148, allele C, REC, Imputed): 0.7366
- WOSCOPS OR (rs1003322, Source caseonly): 1.52
- OR (rs1008705, allele C, DOM, Imputed): 1.451
- OR (rs1012924, allele G, ADD, Imputed): 0.5758
- OR (rs1012924, allele G, DOM, Imputed): 0.554
- OR (rs1016030 allele G ADD Genotyped): 1.554
- OR (rs1017558, allele A, REC, Imputed): 2.201
- OR (rs1030006 allele G, model REC, Imputed): 1.973
- OR (rs1031811 allele A, model REC, Imputed): 1.901
- OR (rs1032188, allele G, REC, Imputed): 0.2613
- WOSCOPS OR (rs1045916, Source cohort): 0.80
- OR (rs1065639, allele C, DOM, Imputed): 1.785
- OR (rs1116596, allele T, DOM, Imputed): 0.6113
- WOSCOPS OR (rs1129570, Source caseonly): 1.58
- WOSCOPS OR (rs1136046, Source caseonly): 1.16
- OR (rs1149350, allele A, DOM, Imputed): 1.97
- OR (rs1150143, allele G, DOM, Imputed): 1.782
- WOSCOPS OR (rs1155875, Source caseonly): 0.66
- WOSCOPS OR (rs1266489, Source caseonly): 0.74
- WOSCOPS OR (rs1344081, Source cohort): 1.58
- WOSCOPS OR (rs1352236, Source caseonly): 0.27
